From PubChem BioAssay AID248 (DTP/NCI, 2004)
The list is a part of this screen's results and no random one: it gathers tests that were run many times, whatever their T/C, doses with no T/C, and many T/C values between a quarter and a half above the control. Other doses and runs of a compound stand elsewhere. T/C: endpoint of the treated group in % of that of the vehicle group. Some entries give survivors of the animals treated and no T/C: the source files T/C as zero there, which appears to mark a toxic dose or a test without result, not a measured value. Some survivor counts are full or nearly so, which does not show that the dose was tolerated: the source hardly ever lists a survival T/C far under the control, and the zero likely stands for such cases as well. Survivors were counted at the toxicity check, usually on the fifth day, unless a day is given; later deaths do not show. Schedules are NCI's codes, taken here to give the interval after Q, in days (D) or hours (H), and the number of doses after X. Some schedule codes hold Z or #, which are not explained here. Some entries were tested several times; the values are given in rising order. For survival time, this PubChem deposit counts one and a half times the control or more as active, and values a quarter to a half above the control carry no call in these data; other NCI protocols may use other cut-offs. Brackets with × give the number of equal values in this list. Some T/C values are followed by the survivors on the day toxicity was checked, most often the fifth; without a count, all were alive then.

System: L1210 leukemia ip in BDF1 mice, survival T/C
Assay: NCI In Vivo Anticancer Drug Screen. Data for tumor model L1210 Leukemia (intraperitoneal) in B6D2F1 (BDF1) mice
Settings: higher T/C = longer survival
[1] = T/C endpoint: mean survival time, dose: 400.0 mg/kg/injection, schedule: Q04DX003 (ip), vehicle: saline
[2] = T/C endpoint: mean survival time, dose: 100.0 mg/kg/injection, schedule: Q01DX009 (ip), vehicle: Klucel (hydroxypropylcellulose) (HPC)
[3] = T/C endpoint: mean survival time, dose: 400.0 mg/kg/injection, schedule: Q01DX009 (ip), vehicle: saline
[4] = T/C endpoint: median survival time, dose: 128.0 mg/kg/injection, schedule: Q01DX009 (oral), vehicle: saline

**Q.** `CN(C)CC1C(O)C2CCN1CC2` (stereo not given) was tested. Which survivor count [1] did it give?
**A.** 1 of 6

**Q.** Which results are given for `CCCCCCC(=O)NC1=C(N2CC2)C(=O)C(NC(=O)CCCCCC)=C(N2CC2)C1=O`?
**A.** T/C (T/C endpoint: mean survival time, dose: 76.0 mg/kg/injection, schedule: Q01DX Z (ip), vehicle: carboxymethylcellulose (CMC)): 126 % of control; T/C [2]: 138 % of control [4 of 6 alive]; T/C (T/C endpoint: mean survival time, dose: 100.0 mg/kg/injection, schedule: Q01DX009 (ip), vehicle: other): 147 % of control; survivor count (T/C endpoint: mean survival time, dose: 115.0 mg/kg/injection, schedule: Q01DX Z (ip), vehicle: methylcellulose (MC)): 4 of 6; survivor count (T/C endpoint: mean survival time, dose: 172.5 mg/kg/injection, schedule: Q01DX Z (ip), vehicle: methylcellulose (MC)): 0 of 6; T/C (T/C endpoint: mean survival time, dose: 200.0 mg/kg/injection, schedule: Q04DX003 (ip), vehicle: Klucel (hydroxypropylcellulose) (HPC)): 133 % of control; survivor count (T/C endpoint: mean survival time, dose: 400.0 mg/kg/injection, schedule: Q01DX009 (ip), vehicle: other): 4 of 6; survivor count [3]: 6 of 6; T/C (T/C endpoint: mean survival time, dose: 400.0 mg/kg/injection, schedule: Q04DX003 (ip), vehicle: Klucel (hydroxypropylcellulose) (HPC)): 141 % of control; T/C (T/C endpoint: mean survival time, dose: 400.0 mg/kg/injection, schedule: Q04DX003 (ip), vehicle: other): 141 % of control; T/C [1]: 127 % of control

**Q.** What does the source list for `N[C@H](C(=O)O)[C@H]1ON=C(Cl)[C@@H]1O`?
**A.** T/C (T/C endpoint: mean survival time, dose: 1.56 mg/kg/injection, schedule: Q01DX009 (ip), vehicle: saline): 103, 105, 111, 113 % of control; T/C (T/C endpoint: mean survival time, dose: 3.12 mg/kg/injection, schedule: Q01DX009 (ip), vehicle: saline): 117, 122, 126, 127 % of control; T/C (T/C endpoint: mean survival time, dose: 6.25 mg/kg/injection, schedule: Q01DX009 (ip), vehicle: saline): 120, 128, 138, 144 % of control; T/C (T/C endpoint: mean survival time, dose: 11.0 mg/kg/injection, schedule: Q01DX009 (ip), vehicle: Klucel (hydroxypropylcellulose) (HPC)): 135 % of control; T/C (T/C endpoint: mean survival time, dose: 12.5 mg/kg/injection, schedule: Q01DX009 (ip), vehicle: Klucel (hydroxypropylcellulose) (HPC)): 134 % of control; T/C (T/C endpoint: mean survival time, dose: 12.5 mg/kg/injection, schedule: Q01DX009 (ip), vehicle: saline): 136, 137, 145, 148 % of control; T/C (T/C endpoint: mean survival time, dose: 22.0 mg/kg/injection, schedule: Q01DX009 (ip), vehicle: Klucel (hydroxypropylcellulose) (HPC)): 143 % of control; T/C (T/C endpoint: mean survival time, dose: 25.0 mg/kg/injection, schedule: Q01DX009 (ip), vehicle: Klucel (hydroxypropylcellulose) (HPC)): 148 % of control; T/C (T/C endpoint: mean survival time, dose: 25.0 mg/kg/injection, schedule: Q01DX009 (ip), vehicle: saline): 152, 159 (2×), 167 % of control; T/C (T/C endpoint: mean survival time, dose: 44.0 mg/kg/injection, schedule: Q01DX009 (ip), vehicle: Klucel (hydroxypropylcellulose) (HPC)): 142 % of control; T/C (T/C endpoint: mean survival time, dose: 50.0 mg/kg/injection, schedule: Q01DX009 (ip), vehicle: Klucel (hydroxypropylcellulose) (HPC)): 135 % of control; T/C (T/C endpoint: mean survival time, dose: 50.0 mg/kg/injection, schedule: Q01DX009 (ip), vehicle: saline): 154, 161, 165, 167 % of control; T/C [2]: 140 % of control; T/C (T/C endpoint: mean survival time, dose: 100.0 mg/kg/injection, schedule: Q01DX009 (ip), vehicle: saline): 117, 130, 156, 161 % of control; T/C (T/C endpoint: median survival time, dose: 3.12 mg/kg/injection, schedule: Q01DX009 (ip), vehicle: saline): 126 % of control; T/C (T/C endpoint: median survival time, dose: 4.0 mg/kg/injection, schedule: Q03HX016 (ip), vehicle: saline): 142 % of control; T/C (T/C endpoint: median survival time, dose: 6.25 mg/kg/injection, schedule: Q01DX009 (ip), vehicle: saline): 135 % of control; T/C (T/C endpoint: median survival time, dose: 6.25 mg/kg/injection, schedule: Q03HX008 (ip), vehicle: saline): 140 % of control; T/C (T/C endpoint: median survival time, dose: 8.0 mg/kg/injection, schedule: Q01DX009 (ip), vehicle: saline): 127 % of control; T/C (T/C endpoint: median survival time, dose: 8.0 mg/kg/injection, schedule: Q03HX008 (ip), vehicle: saline): 130 % of control; T/C (T/C endpoint: median survival time, dose: 8.0 mg/kg/injection, schedule: Q03HX024 (ip), vehicle: saline): 137 % of control; T/C (T/C endpoint: median survival time, dose: 12.5 mg/kg/injection, schedule: Q01DX009 (ip), vehicle: saline): 147 % of control; T/C (T/C endpoint: median survival time, dose: 12.5 mg/kg/injection, schedule: Q03HX008 (ip), vehicle: saline): 146 % of control; T/C (T/C endpoint: median survival time, dose: 16.0 mg/kg/injection, schedule: Q01DX009 (ip), vehicle: saline): 141 % of control; T/C (T/C endpoint: median survival time, dose: 16.0 mg/kg/injection, schedule: Q01DX009 (sc), vehicle: saline): 127 % of control; T/C (T/C endpoint: median survival time, dose: 16.0 mg/kg/injection, schedule: Q03HX008 (ip), vehicle: saline): 137 % of control; T/C (T/C endpoint: median survival time, dose: 16.0 mg/kg/injection, schedule: Q03HX024 (ip), vehicle: saline): 138 % of control; T/C (T/C endpoint: median survival time, dose: 25.0 mg/kg/injection, schedule: Q03HX008 (ip), vehicle: saline): 143 % of control; T/C (T/C endpoint: median survival time, dose: 25.0 mg/kg/injection, schedule: Q03HX024 (ip), vehicle: saline): 141 % of control; T/C (T/C endpoint: median survival time, dose: 25.0 mg/kg/injection, schedule: Q04DX003 (ip), vehicle: saline): 127 % of control; T/C (T/C endpoint: median survival time, dose: 32.0 mg/kg/injection, schedule: Q01DX009 (ip), vehicle: saline): 143 % of control; T/C (T/C endpoint: median survival time, dose: 32.0 mg/kg/injection, schedule: Q01DX009 (sc), vehicle: saline): 143 % of control; T/C (T/C endpoint: median survival time, dose: 32.0 mg/kg/injection, schedule: Q03HX008 (ip), vehicle: saline): 142 % of control; T/C (T/C endpoint: median survival time, dose: 50.0 mg/kg/injection, schedule: Q01DX009 (ip), vehicle: saline): 146 % of control; T/C (T/C endpoint: median survival time, dose: 50.0 mg/kg/injection, schedule: Q03HX008 (ip), vehicle: saline): 131 % of control; T/C (T/C endpoint: median survival time, dose: 50.0 mg/kg/injection, schedule: Q03HX024 (ip), vehicle: saline): 125 % of control; T/C (T/C endpoint: median survival time, dose: 50.0 mg/kg/injection, schedule: Q04DX003 (ip), vehicle: saline): 141 % of control; T/C (T/C endpoint: median survival time, dose: 64.0 mg/kg/injection, schedule: Q01DX009 (ip), vehicle: saline): 148 % of control; T/C (T/C endpoint: median survival time, dose: 64.0 mg/kg/injection, schedule: Q01DX009 (oral), vehicle: saline): 145 % of control; T/C (T/C endpoint: median survival time, dose: 64.0 mg/kg/injection, schedule: Q03HX008 (ip), vehicle: saline): 132 % of control; T/C (T/C endpoint: median survival time, dose: 64.0 mg/kg/injection, schedule: Q03HX016 (ip), vehicle: saline): 145 % of control; T/C (T/C endpoint: median survival time, dose: 100.0 mg/kg/injection, schedule: Q03HX008 (ip), vehicle: saline): 145 % of control; T/C [4]: 125 % of control; survivor count [4]: 10 of 10; T/C (T/C endpoint: median survival time, dose: 128.0 mg/kg/injection, schedule: Q03HX008 (ip), vehicle: saline): 131 % of control [9 of 10 alive]; T/C (T/C endpoint: median survival time, dose: 128.0 mg/kg/injection, schedule: Q03HX016 (ip), vehicle: saline): 148 % of control; T/C (T/C endpoint: median survival time, dose: 200.0 mg/kg/injection, schedule: Q04DX003 (ip), vehicle: saline): 130 % of control; T/C (T/C endpoint: median survival time, dose: 256.0 mg/kg/injection, schedule: Q01DX009 (sc), vehicle: saline): 147 % of control; T/C (T/C endpoint: median survival time, dose: 256.0 mg/kg/injection, schedule: Q04DX003 (ip), vehicle: saline): 125 % of control; T/C (T/C endpoint: median survival time, dose: 400.0 mg/kg/injection, schedule: Q04DX003 (ip), vehicle: saline): 147 % of control; survivor count (T/C endpoint: median survival time, dose: 512.0 mg/kg/injection, schedule: Q01DX009 (oral), vehicle: saline): 10 of 10; T/C (T/C endpoint: median survival time, dose: 512.0 mg/kg/injection, schedule: Q04DX003 (ip), vehicle: saline): 132 % of control; T/C (T/C endpoint: median survival time, dose: 1024.0 mg/kg/injection, schedule: Q01DX001 (oral), vehicle: saline): 125 % of control; survivor count (T/C endpoint: median survival time, dose: 1024.0 mg/kg/injection, schedule: Q01DX009 (oral), vehicle: saline): 4 of 10 and 8 of 10; T/C (T/C endpoint: median survival time, dose: 1024.0 mg/kg/injection, schedule: Q04DX003 (ip), vehicle: saline): 147 % of control; T/C (T/C endpoint: median survival time, dose: 2048.0 mg/kg/injection, schedule: Q01DX001 (oral), vehicle: saline): 132 and 137 % of control; survivor count (T/C endpoint: median survival time, dose: 2048.0 mg/kg/injection, schedule: Q01DX009 (oral), vehicle: saline): 1 of 10 and 6 of 10

**Q.** How did the survivor count [3] turn out when `O=C(Oc1ccc([N+](=O)[O-])cc1)c1ccc(C[n+]2ccccc2)cc1` was run?
**A.** 1 of 6

**Q.** What about the survivor count [1] of the same molecule?
**A.** 4 of 6

**Q.** For `Cc1cc(Cl)c(Cl)cc1NC(=O)C(Br)C(Br)C(=O)O` (stereo not given), which survivor count (T/C endpoint: mean survival time, dose: 400.0 mg/kg/injection, schedule: Q01DX009 (ip), vehicle: saline with Tween-80) is on record?
**A.** 1 of 6

**Q.** With `CC(C)(C)N.[O]=[Cr](=[O])([OH])[OH]` as the molecule, how does the survivor count (T/C endpoint: mean survival time, dose: 75.0 mg/kg/injection, schedule: Q01DX001 (ip), vehicle: saline) read?
**A.** 0 of 6

**Q.** What about the survivor count (T/C endpoint: mean survival time, dose: 150.0 mg/kg/injection, schedule: Q01DX001 (ip), vehicle: saline) of the same molecule?
**A.** 0 of 6

**Q.** And the survivor count (T/C endpoint: mean survival time, dose: 300.0 mg/kg/injection, schedule: Q01DX001 (ip), vehicle: saline)?
**A.** 0 of 6
